{
  "sequences": {"note": "The chains behind the UniProt entries cited, without tags or fusion partners.", "UniProt P04198": "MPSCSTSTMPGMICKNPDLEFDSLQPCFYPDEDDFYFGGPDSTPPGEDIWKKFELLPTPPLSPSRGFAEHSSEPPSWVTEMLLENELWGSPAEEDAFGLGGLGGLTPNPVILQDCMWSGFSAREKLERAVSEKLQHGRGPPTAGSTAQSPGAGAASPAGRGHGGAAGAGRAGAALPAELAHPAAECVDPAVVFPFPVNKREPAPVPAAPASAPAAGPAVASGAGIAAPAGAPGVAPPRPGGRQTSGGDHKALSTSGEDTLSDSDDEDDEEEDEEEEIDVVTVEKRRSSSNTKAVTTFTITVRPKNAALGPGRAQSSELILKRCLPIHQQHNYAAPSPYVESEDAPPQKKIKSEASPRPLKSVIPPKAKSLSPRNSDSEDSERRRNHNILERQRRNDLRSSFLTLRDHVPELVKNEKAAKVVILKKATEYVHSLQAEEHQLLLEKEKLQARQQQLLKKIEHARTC", "UniProt Q969H0": "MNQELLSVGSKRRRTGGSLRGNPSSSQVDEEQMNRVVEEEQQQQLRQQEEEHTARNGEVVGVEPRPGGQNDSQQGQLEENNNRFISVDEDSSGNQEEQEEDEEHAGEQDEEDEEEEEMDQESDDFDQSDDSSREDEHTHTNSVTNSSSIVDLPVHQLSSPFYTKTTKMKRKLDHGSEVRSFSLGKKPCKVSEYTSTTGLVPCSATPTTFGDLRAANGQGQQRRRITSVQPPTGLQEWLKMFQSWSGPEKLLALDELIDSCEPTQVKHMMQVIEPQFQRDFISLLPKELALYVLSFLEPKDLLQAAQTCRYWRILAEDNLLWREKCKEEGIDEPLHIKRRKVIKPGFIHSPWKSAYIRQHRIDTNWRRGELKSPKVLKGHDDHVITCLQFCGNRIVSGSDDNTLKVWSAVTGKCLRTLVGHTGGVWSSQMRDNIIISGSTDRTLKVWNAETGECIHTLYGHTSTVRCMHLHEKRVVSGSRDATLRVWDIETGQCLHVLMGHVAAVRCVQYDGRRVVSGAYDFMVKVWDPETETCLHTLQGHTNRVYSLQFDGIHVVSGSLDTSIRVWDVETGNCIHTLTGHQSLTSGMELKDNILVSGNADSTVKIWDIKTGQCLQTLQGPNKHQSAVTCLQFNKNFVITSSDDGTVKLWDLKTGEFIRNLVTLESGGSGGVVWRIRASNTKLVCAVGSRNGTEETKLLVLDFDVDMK"},
  "source": "paper PMC9293756",
  "biological_target": "MYCN (human (endogenous in SK-N-BE(2)-C)) (UniProt P04198)",
  "assay": "proximity ligation; DuoLink PLA (Sigma) on SK-N-BE(2)-C cells, with or without verlindamycin treatment; confocal microscopy, dots scored with DuoLink ImageTool",
  "note": "No constants are given. Whether binding was seen depends on the method and setting. Binding seen in cells or lysates may run through a third protein. Some entries that bind do so weakly or less than the wild type.",
  "data": [
    {"substance": "FBXW7 ubiquitin ligase (from UniProt Q969H0 1-707)", "values": [
      {"measurement": "binding", "value": "binds"}
    ]}
  ]
}
